Results taken from article PMC11196597.
These are yes or no findings as the source states them, for the method shown. Binding seen in cells or lysates may run through a third protein. Some binding calls cover weakened binding; strength is not graded here. For some assays here: Tags and fused reporters may be left off the sequences shown.

Chains of the proteins cited; added tags and fusions are not shown.
UniProt P40337: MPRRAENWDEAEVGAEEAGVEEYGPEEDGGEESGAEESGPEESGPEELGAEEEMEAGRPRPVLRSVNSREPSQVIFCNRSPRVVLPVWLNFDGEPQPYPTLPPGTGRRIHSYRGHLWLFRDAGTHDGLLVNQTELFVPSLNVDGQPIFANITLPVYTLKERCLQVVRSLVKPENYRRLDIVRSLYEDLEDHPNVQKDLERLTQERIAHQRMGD

Experiments:
[1] = target: T1, Myc-UBE3B, full-length (FL) (human) (UniProt Q7Z3V4); test: co-IP; HEK293T and HeLa cells transfected with Flag-VHL and Myc-UBE3B; IP with anti-Flag or anti-Myc antibody and protein G/A magnetic beads overnight at 4 °C; lysis buffer 10 mM Tris-HCl, 150 mM NaCl, 1 mM EDTA, 0.5% NP-40, pH 7.4
T1 sequence: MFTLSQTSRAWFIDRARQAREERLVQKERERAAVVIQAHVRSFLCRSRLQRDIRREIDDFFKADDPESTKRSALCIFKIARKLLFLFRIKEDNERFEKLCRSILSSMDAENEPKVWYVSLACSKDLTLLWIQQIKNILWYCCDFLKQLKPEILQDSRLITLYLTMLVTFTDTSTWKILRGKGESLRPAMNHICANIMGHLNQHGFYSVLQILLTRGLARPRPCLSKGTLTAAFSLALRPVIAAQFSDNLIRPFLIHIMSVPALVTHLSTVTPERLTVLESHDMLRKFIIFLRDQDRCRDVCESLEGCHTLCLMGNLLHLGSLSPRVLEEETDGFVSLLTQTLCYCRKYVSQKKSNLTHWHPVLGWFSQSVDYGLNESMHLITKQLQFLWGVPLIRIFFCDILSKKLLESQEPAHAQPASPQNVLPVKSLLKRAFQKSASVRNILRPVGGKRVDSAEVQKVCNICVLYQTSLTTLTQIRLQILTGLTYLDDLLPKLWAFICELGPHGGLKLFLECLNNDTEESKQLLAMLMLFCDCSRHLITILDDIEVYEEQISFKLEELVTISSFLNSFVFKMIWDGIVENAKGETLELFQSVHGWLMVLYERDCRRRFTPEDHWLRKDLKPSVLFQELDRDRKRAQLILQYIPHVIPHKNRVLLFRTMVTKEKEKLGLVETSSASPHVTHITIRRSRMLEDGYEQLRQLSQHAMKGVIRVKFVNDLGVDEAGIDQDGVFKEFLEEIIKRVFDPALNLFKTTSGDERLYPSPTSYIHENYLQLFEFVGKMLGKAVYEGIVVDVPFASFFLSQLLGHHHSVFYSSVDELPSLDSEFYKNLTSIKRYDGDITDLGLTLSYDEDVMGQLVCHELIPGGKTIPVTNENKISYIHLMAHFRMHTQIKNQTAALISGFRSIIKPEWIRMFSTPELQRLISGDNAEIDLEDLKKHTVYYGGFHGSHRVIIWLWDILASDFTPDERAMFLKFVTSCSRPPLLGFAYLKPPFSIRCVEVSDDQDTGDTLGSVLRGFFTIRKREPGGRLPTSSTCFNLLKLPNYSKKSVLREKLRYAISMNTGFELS

[2] = target: T2, endogenous UBE3B (human (endogenous in MDA-MB-231 and T47D)) (UniProt Q7Z3V4); test: co-IP; endogenous proteins in MDA-MB-231 and T47D cells treated with 10 μM MG132 for 6 h before harvest; IP of UBE3B or of VHL; lysis buffer 10 mM Tris-HCl, 150 mM NaCl, 1 mM EDTA, 0.5% NP-40, pH 7.4
T2 sequence: T1 sequence

binding [1] | binding [2] | Substance
binds |  | Flag-VHL, full-length (from UniProt P40337 1-213)
 | binds | endogenous VHL (from UniProt P40337 1-213)
